# Measured values taken from PubChem BioAssay AID624291 (National Center for Advancing Translational Sciences (NCATS), 2012).
# About 220 (0.063%) of roughly 350,000 compounds were called active. This list was built around the results that the source calls inconclusive (neither active nor inactive); the mix of calls is not that of the screen. Calls come from the whole dose curve; as a rule, active = well fitted activation curve with a large enough effect; inconclusive = small, poorly fitted or top-dose-only effect; inactive = no such curve, though single readings can be large or run the other way. Potencies of inconclusive entries are doubtful fits and often do not repeat.
# Experiment: qHTS for Activators of Integrin-Mediated Alleviation for Muscular Dystrophy; note: nearly all actives have a fitted effect of over 60% in size;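 for activation: 100% = response of the positive control SU9516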
# Settings: alpha7betagal myoblasts, beta-gal FDG fluorescence, 48 h; activation: at 38.3 µM (top of the series)
# How it was run: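 alpha7betagal+/- myoblasts (passage 13, 250/well) treated 48 h at 37C with compounds at 1:260 dilution of DMSO stock. Lysed, then beta-galactosidase activity read as FDG fluorescence (ex 480/em 540) after 30 min, with pre-read for autofluorescence.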
# Potency is the fitted concentration of half-maximal effect.
SMILES,Potency,activation
COc1ccc(Cl)cc1N=Cc1c(O)cc(C)oc1=O,"inconclusive: 28.2 µM [activator, single point]",
CCc1ccc2c(c1)C(C)=CC(C)(C)N2,inactive,
CC[n+]1ccc(/C=C/c2ccc(N(C)C)cc2)c2ccccc21,,inconclusive: -61.6% [activator]
CCOc1ccc(-c2cn(S(=O)(=O)c3cccc4nsnc34)nc2N)cc1,,inconclusive: 18% [activator]
O=C(O)Cc1sc(Nc2cccc3ccccc23)nc1-c1ccccc1,"inconclusive: 0.316 µM [activator, full curve, poor fit]",
COc1cc(/C=N/Nc2nc(C)cc(=O)[nH]2)ccc1O,"inconclusive: 5.01 µM [activator, partial curve, poor fit]",
O=C(CSc1ncn[nH]1)Nc1ccc(OCc2ccccc2)cc1,"inconclusive: 5.01 µM [activator, single point]",
Cc1ccc(CSC2=CS(=O)(=O)c3ccccc3N2)cc1,"inconclusive: 6.31 µM [activator, partial curve, poor fit]",
O=C(Nc1ncccc1O)c1ccc(NS(=O)(=O)c2ccc3[nH]c(=O)[nH]c3c2)cc1,"inconclusive: 3.98 µM [activator, full curve, poor fit]",
CC(=O)Nc1ccc(NC(=O)Nc2ccccc2)cc1,"inconclusive: 5.01 µM [activator, partial curve, poor fit]",
CCc1nnc(NC(=O)/C=C/c2cccs2)s1,inactive,
O=C(Nc1ccc(Br)cc1)Nc1cnccn1,inactive,
CC(C)c1ccc(N(C(=O)CNC(=O)c2ccco2)C(C(=O)NC2CCCC2)c2cccnc2)cc1 (stereo not given),"inconclusive: 28.2 µM [activator, single point]",
Cc1ccccc1OCC(=O)N/N=C/c1cccn1C,inactive,
O=C(c1ccc2c(c1)N(Cc1ccccc1F)C(=O)c1ccccc1S2)N1CCOCC1,"inconclusive: 5.01 µM [activator, single point]",
COc1ccc(C(=O)N2CCN(CCc3ccccc3)CC2)cc1[N+](=O)[O-],"inconclusive: 5.62 µM [activator, full curve, poor fit]",
Cc1ccc(/C=N/NC(=O)c2ccccc2OCc2cccc(Br)c2)o1,"inconclusive: 10 µM [activator, partial curve]",
COc1ccc(-n2ncc3c2CC(C)(C)CC3NC(=O)CCC2=NNC(=O)CC2)cc1 (stereo not given),"inconclusive: 3.55 µM [activator, single point]",
CC(=O)Nc1ccc(NC(=S)Nc2ccccc2)cc1,inactive,
C=CCn1c(SCC(=O)Nc2ccc(-c3nc4ccc(C)cc4s3)cc2)nnc1-c1ccncc1,"inconclusive: 12.6 µM [activator, single point]",
CCN(CC(=O)NCc1cccs1)C(=O)COc1ccc(C(C)=O)cc1,"inconclusive: 2.51 µM [activator, partial curve, poor fit]",
COc1ccc(OCC(=O)Nc2ccncc2)cc1,"inconclusive: 10 µM [activator, partial curve, poor fit]",

SMILES,Potency,activation
COc1ccc(C(=S)N2CCOCC2)cc1OC(=O)c1ccc([N+](=O)[O-])cc1[N+](=O)[O-],"inconclusive: 14.1 µM [activator, single point]",
COc1cc(C(=O)NC23CC4CC(CC(C4)C2)C3)cc(OC)c1OC,"inconclusive: 10 µM [activator, single point]",
CN(C)c1cc(-c2ccc(Cl)cc2Cl)oc(=O)c1Cl,"inconclusive: 3.16 µM [activator, partial curve, poor fit]",
CC1CCN(S(=O)(=O)c2ccc3c(c2)N(CC(=O)NCCN2C(C)CCCC2C)C(=O)CS3)CC1 (stereo not given),"inconclusive: 2 µM [activator, single point]",
CC(=O)c1cccc(NC(=O)c2cc(=O)c3ccccc3o2)c1,"inconclusive: 2.82 µM [activator, single point]",
CCOC(=O)c1c(NC(=O)CSc2nnc3ccccn23)sc2c1CCC2,inactive,
COc1cccc(-n2c(C)nnc2SCC#N)c1,"inconclusive: 17.8 µM [activator, single point]",
O=C(c1ccncc1)c1nccn1-c1ccccn1,"inconclusive: 20 µM [activator, single point]",
CC1CCCCC1NC(=O)Cn1cccc1C(=O)c1ccccc1 (stereo not given),"inconclusive: 3.55 µM [activator, full curve, poor fit]",
O=S(=O)(c1ccc(F)cc1)N1CC=C(c2ccccc2)CC1,"inconclusive: 4.47 µM [activator, single point]",
COc1ccccc1NC(=O)CN1CCC(c2nc3ccccc3[nH]2)CC1,"inconclusive: 0.447 µM [activator, full curve, poor fit]",
O=C(NC1CCCc2ccccc21)c1ccccn1 (stereo not given),"inconclusive: 5.01 µM [activator, single point]",
Cc1ccc(C)c2c(N)c3c(nc12)CCCCC3 (tested in a mixture with another compound),"inconclusive: 12.6 µM [activator, partial curve, poor fit]",
O=C(NN=C1CCCC1)c1ccc(O)cc1,inactive,
O=S(=O)(c1ccccc1F)N1CCN(c2nc3ccccc3s2)CC1,"inconclusive: 2.82 µM [activator, single point]",
CCN(CC)S(=O)(=O)c1ccc(N2CCN(c3ccccc3O)CC2)nc1,inactive,
C#CCn1cccc(C(=O)Nc2ccc(OC)cc2)c1=O,"inconclusive: 5.01 µM [activator, single point]",
COc1ccc(CCN2C(=S)N(c3ccccc3)C(=O)C2CC(=O)O)cc1OC (stereo not given),"inconclusive: 2.82 µM [activator, single point]",
COc1cccc(C(=O)NNc2c3ccccc3nc3ccccc23)c1,"inconclusive: 5.01 µM [activator, single point]",
COc1cccc(OCC(=O)NC2CCCCC2)c1,inactive,
Cc1ccc(-n2nc3c(N4CCC(C(=O)N5CCN(C)CC5)CC4)nnc(C)c3c2C)cc1,"inconclusive: 4.47 µM [activator, single point]",
COC(=O)c1ccc(NC(=O)C2CCCN2C(=O)Nc2cccc(C(C)=O)c2)cc1 (stereo not given),"inconclusive: 11.2 µM [activator, partial curve, poor fit]",

# Sorted by length of the SMILES (ascending): part of the list above
SMILES,Potency,activation
O=C(NN=C1CCCC1)c1ccc(O)cc1,inactive,
COc1cccc(-n2c(C)nnc2SCC#N)c1,"inconclusive: 17.8 µM [activator, single point]",
O=C(c1ccncc1)c1nccn1-c1ccccn1,"inconclusive: 20 µM [activator, single point]",
Cc1ccc(C)c2c(N)c3c(nc12)CCCCC3 (tested in a mixture with another compound),"inconclusive: 12.6 µM [activator, partial curve, poor fit]",
C#CCn1cccc(C(=O)Nc2ccc(OC)cc2)c1=O,"inconclusive: 5.01 µM [activator, single point]",
CN(C)c1cc(-c2ccc(Cl)cc2Cl)oc(=O)c1Cl,"inconclusive: 3.16 µM [activator, partial curve, poor fit]",
O=S(=O)(c1ccc(F)cc1)N1CC=C(c2ccccc2)CC1,"inconclusive: 4.47 µM [activator, single point]",
CC(=O)c1cccc(NC(=O)c2cc(=O)c3ccccc3o2)c1,"inconclusive: 2.82 µM [activator, single point]",
O=S(=O)(c1ccccc1F)N1CCN(c2nc3ccccc3s2)CC1,"inconclusive: 2.82 µM [activator, single point]",
COc1ccccc1NC(=O)CN1CCC(c2nc3ccccc3[nH]2)CC1,"inconclusive: 0.447 µM [activator, full curve, poor fit]",
COc1cc(C(=O)NC23CC4CC(CC(C4)C2)C3)cc(OC)c1OC,"inconclusive: 10 µM [activator, single point]",
CCN(CC)S(=O)(=O)c1ccc(N2CCN(c3ccccc3O)CC2)nc1,inactive,
COc1ccc(CCN2C(=S)N(c3ccccc3)C(=O)C2CC(=O)O)cc1OC (stereo not given),"inconclusive: 2.82 µM [activator, single point]",
COC(=O)c1ccc(NC(=O)C2CCCN2C(=O)Nc2cccc(C(C)=O)c2)cc1 (stereo not given),"inconclusive: 11.2 µM [activator, partial curve, poor fit]",
Cc1ccc(-n2nc3c(N4CCC(C(=O)N5CCN(C)CC5)CC4)nnc(C)c3c2C)cc1,"inconclusive: 4.47 µM [activator, single point]",
CC1CCN(S(=O)(=O)c2ccc3c(c2)N(CC(=O)NCCN2C(C)CCCC2C)C(=O)CS3)CC1 (stereo not given),"inconclusive: 2 µM [activator, single point]",
COc1ccc(C(=S)N2CCOCC2)cc1OC(=O)c1ccc([N+](=O)[O-])cc1[N+](=O)[O-],"inconclusive: 14.1 µM [activator, single point]",

# Next part.

SMILES,Potency,activation
O=C(Nc1nc2nc(-c3ccccc3)cc(-c3ccccc3)n2n1)c1ccco1,"inconclusive: 11.2 µM [activator, partial curve, poor fit]",
CN(C)c1ccc(C(C(=O)NCC2CCCO2)N(Cc2ccco2)C(=O)c2snc(C(N)=O)c2N)cc1 (stereo not given),"inconclusive: 3.16 µM [activator, partial curve, poor fit]",
CC(C)/C=C/C(=O)N1CCC(N2CCC(C(=O)NCc3ccccn3)CC2)CC1,"inconclusive: 3.55 µM [activator, partial curve, poor fit]",
COc1cccc(=O)c2c(C)n(C)c(C)c12,"inconclusive: 7.08 µM [activator, partial curve, poor fit]",
COc1ccc(S(=O)(=O)N2CCCCC2)cc1NC(=O)CCNC(=O)c1ccc(Cl)cc1,"inconclusive: 11.2 µM [activator, partial curve, poor fit]",
COc1cc([N+](=O)[O-])cc2cc(C(=O)N3CCCC3)c(=O)oc12,inactive,
O=C(c1ccccc1)c1cc([N+](=O)[O-])ccc1N1CCOCC1,"inconclusive: 2 µM [activator, full curve, poor fit]",
COc1ccc(C2CC(c3ccc(Br)cc3)Nc3nc(N)nn32)cc1 (stereo not given),"inconclusive: 3.16 µM [activator, single point]",
O=C(Nc1ccccc1C(=O)O)c1cccc(S(=O)(=O)Nc2ccc(Br)cc2)c1,"inconclusive: 6.31 µM [activator, partial curve, poor fit]",
O=C1NC[C@@H](Cc2ccc(O)cc2)N(CCc2cccc3ccccc23)C1=O,"inconclusive: 5.01 µM [activator, single point]",
Nc1ccc(-c2nc3ccc([N+](=O)[O-])cc3[nH]2)cc1,inactive,
CC(C)C[C@H](NC(=O)N1CCn2c1nc1ccccc12)C(=O)NC1CC1,"inconclusive: 2.51 µM [activator, full curve]",
C/[N+]([O-])=C/c1c(OCc2ccccc2)ccc2ccccc12,"inconclusive: 5.01 µM [activator, single point]",
O=C(O)CC12CC3CC(C1)CC(n1ncc(N4CCC5(CC4)OCCO5)c(Cl)c1=O)(C3)C2,"inconclusive: 3.16 µM [activator, single point]",
C=CCOC(=O)Nc1c(C(=O)OC)[nH]c2ccc(Cl)cc12,inactive,
CC1(C)CC(=O)C=C(NNC(=O)c2ccccc2O)C1,inactive,
O=C(c1ccc(Cl)cc1)C1CCCN(Cc2ccc(Oc3ncccn3)cc2)C1 (stereo not given),,inconclusive: -46.6% [activator]
O=C(COC(=O)c1ccc[nH]c1=O)NC1CCCCC1,inactive,
O=C(O)c1cccc(S(=O)(=O)Nc2ccc([N+](=O)[O-])cc2O)c1,"inconclusive: 11.2 µM [activator, single point]",
CN(C)/N=C/c1ccc(Sc2ccccc2[N+](=O)[O-])o1,"inconclusive: 2.24 µM [activator, single point]",
Cc1ccc(C(C)C)c(OCC(=O)NS(=O)(=O)c2ccc(Cl)cc2)c1,"inconclusive: 4.47 µM [activator, partial curve, poor fit]",
